# Source: PubChem BioAssay AID504467 (National Center for Advancing Translational Sciences (NCATS), 2011)
# Out of some 330,000 compounds screened, about 7,700 (2.3%) were called active. The shares of active, inactive and inconclusive entries below differ from those in the screen. Calls follow the shape of the dose curve; as a rule, active = well fitted inhibition curve with a large enough effect; inconclusive = small, poorly fitted or top-dose-only effect, or effect the other way; inactive = flat fitted curve, though single readings scatter. Potencies of inconclusive entries are doubtful fits and often do not repeat.
# Experiment: qHTS screen for small molecules that inhibit ELG1-dependent DNA repair in human embryonic kidney (HEK293T) cells expressing luciferase-tagged ELG1; also: nearly all actives have a fitted effect of over 55% in size
# Settings: HEK293T ELG1-luciferase reporter, luminescence, 16 h, DNA damage induced by 5-fluorouridine; activity change, negative = inhibition: at 46.1 µM (top of the series)
# Summary of the method: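 HEK293T cells expressing luciferase-tagged ELG1 (2,000/well) received 5-Fluorouridine plus compound or DMSO for 16 hr at 37 °C. Luciferase was read by ONE-Glo luminescence after 30 min at room temperature.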
# % is scaled to controls: 0 for no effect and ±100 for the full control effect; potency is read from the fitted curve at half-maximal effect.
SMILES,Potency,"activity change, negative = inhibition"
CCCCc1nc2cc(C(=O)N(C)C(C)c3ccccn3)ccc2o1 (stereo not drawn),"inconclusive: 29.1 µM [activator, single point]",
CN(CC(=O)OCC(=O)c1c(N)n(C)c(=O)n(C)c1=O)S(=O)(=O)c1ccc(Cl)cc1,,inactive: 1.86%
Clc1ccccc1/C=C/c1nc(-c2cccnc2)no1,"inconclusive: 4.11 µM [activator, full curve]",
CCCNC(=O)c1ccc(Cn2cc(-c3ccc(OC)cc3)nc2C(C)N)cc1 (stereo not drawn),"inconclusive: 31.6 µM [activator, single point]",
Cn1c(CSc2ccccc2)c(C#N)c2ccccc21,"inconclusive: 6.51 µM [activator, partial curve, poor fit]",
C#CCOCCOCCOCCNc1nc(N2CCN(C(=O)CCCCCCCCCCNC(=O)Cn3cc(CCCCCN)nn3)CC2)nc(N2CCN(C(=O)CCCCCCCCCCNC(=O)[C@H](CO)n3cc(CCCSC)nn3)CC2)n1,"inconclusive: 11.2 µM [inhibitor, single point]",
O=c1c2c3nc4ccccc4nc3n(/N=C/c3ccccn3)c2ncn1-c1ccccc1,,inactive: -1.91%
CN(C)C(=O)c1cc(C(=O)c2ccc(Cl)cc2Cl)c[nH]1,"inconclusive: 11.6 µM [activator, partial curve, poor fit]",
O=C(OCC(=O)N1CCCc2ccccc21)c1cnc(Cl)c(Cl)c1,,inactive: 28.4%
CS(=O)(=O)N1CCN(c2ccc(NC(=O)Cc3ccccc3)cc2)CC1,"inconclusive: 0.259 µM [inhibitor, single point]",
O=C(Nc1ccc(NC(=O)c2cccs2)cc1)c1cccnc1,,inactive: -5.41%
CCC(CO)Oc1cc(NCc2cccc(C)c2)c2ncn(C(C)C)c2c1 (stereo not drawn),"inconclusive: 29.1 µM [inhibitor, partial curve, poor fit]",
Cc1c(C(=O)N2CCc3ccccc3C2)sc2nc(-c3ccccc3)cn12,active: 20.6 µM,
COC(=O)NCC(C)OC(=O)Nc1cccc(Cl)c1 (stereo not drawn),"inconclusive: 18.4 µM [activator, partial curve, poor fit]",
Cc1nc(-c2noc(-c3ccccc3Cl)n2)c(C(F)(F)F)o1,"inconclusive: 18.3 µM [activator, partial curve]",
O=C(Nc1ccccc1C(=O)O)c1ccc(Cl)c(S(=O)(=O)N2CCOCC2)c1,,inactive: -0.283%
O=C(CNc1ccc2ccccc2c1)N/N=C/C=C/c1cccc([N+](=O)[O-])c1,"inconclusive: 23.1 µM [activator, single point]",
C/C(=N\NC(=O)CCn1nnc2ccccc21)c1ccco1,"inconclusive: 16.4 µM [activator, partial curve]",
O=S(=O)(NNc1ccc(F)cc1F)c1cccc(Cl)c1,"inconclusive: 6.51 µM [inhibitor, single point]",
COc1ccccc1CN(C)C(=O)c1ccccc1SCC(=O)N1CCCC1,"inconclusive: 3.16 µM [activator, full curve, poor fit]",
CC1CCN(c2ccc3c(c2)S(=O)(=O)c2cccc(C(=O)NCc4cccc(F)c4)c2C3=O)CC1,"inconclusive: 1.64 µM [inhibitor, partial curve, poor fit]",
O=c1[nH]c(SCc2ccccc2)nc2[nH]ncc12,"inconclusive: 23.1 µM [activator, single point]",
COc1ccc(COC(=O)c2ccc(S(=O)(=O)N3CCC(C)CC3)cc2)cc1,,inactive: 12.4%

SMILES,Potency,"activity change, negative = inhibition"
Cc1ccc(/C=N/Nc2ccc(C(=O)O)cc2)o1,"inconclusive: 2.59 µM [activator, full curve]",
COc1ccc(Oc2coc3cc(OC(=O)/C=C/c4ccccc4)ccc3c2=O)cc1,"inconclusive: 20.6 µM [activator, partial curve, poor fit]",
O=C(O)c1cc(S(=O)(=O)Nc2ccc3c(c2)OCCO3)c(Cl)cc1Cl,"inconclusive: 20.6 µM [activator, partial curve]",
Cc1ccc(NC(=O)c2ccco2)cc1C,"inconclusive: 7.31 µM [activator, partial curve]",
CCN(CC)C(=O)c1ccc(N)cc1,,inactive: 14%
C/C(=N\NS(=O)(=O)c1ccc([N+](=O)[O-])cc1)c1ccc2c(c1)OCO2,,inactive: 3.79%
CC1=CCC2C(=O)N(CCc3c[nH]c4ccccc34)C(=O)C2C1 (stereo not drawn),"inconclusive: 18.4 µM [activator, single point]",
CSc1ccc(CN(C)C(=O)c2cccc(S(=O)(=O)N3CCN(Cc4ccccc4)CC3)c2)cc1,"inconclusive: 29.1 µM [inhibitor, single point]",
Cc1ccc(S(=O)(=O)N2CCN(c3ccnc4cc(Cl)ccc34)CC2)cc1,"inconclusive: 16.4 µM [inhibitor, single point]",
O=C(/C=C/NCc1ccc(F)cc1)c1ccccc1,"inconclusive: 16.4 µM [activator, partial curve]",
COC(=O)c1ccccc1N/C=C/C(=O)c1ccc(Br)cc1,"inconclusive: 16.4 µM [activator, partial curve]",
O=C(CSc1nnc(Nc2ccccc2F)s1)NCc1ccco1,"inconclusive: 3.26 µM [activator, single point]",
CS(=O)(=O)N1CCc2cc(C(=O)O)ccc21,,inactive: 0.727%
CCOc1ccc(OCC)c(N=c2oc3c(C)ncc(CO)c3cc2C(N)=O)c1,"inconclusive: 7.31 µM [inhibitor, partial curve, poor fit]",
COc1cc(OC)cc(C(=O)NN(CCC#N)C2=NS(=O)(=O)c3ccccc32)c1,,inactive: 9.76%
Cc1ccc(-c2nnc(Nc3ccc4c(c3)OCO4)c3ccccc23)cc1S(=O)(=O)NCCO,"inconclusive: 23.1 µM [inhibitor, single point]",
COc1ccc(C(=O)Nc2ccc(S(=O)(=O)Nc3onc(C)c3C)cc2)c(OC)c1,"inconclusive: 23.1 µM [activator, single point]",
Cc1ccc(Nc2nc(CSc3nnc(-c4ccccc4C)n3C)cs2)cc1,"inconclusive: 6.51 µM [activator, single point]",
CCOC(=O)c1cc(-c2ccc(N3CCOCC3)cc2)nn1-c1ccc(F)cc1F,"inconclusive: 4.61 µM [inhibitor, partial curve, poor fit]",
COc1cccc(-c2cc(C(=O)N/N=C/c3ccc(OC)c(COC(C)=O)c3)c3ccccc3n2)c1,"inconclusive: 29.1 µM [inhibitor, single point]",
c1ccc(CCc2ccccc2-c2nc(-c3cccnc3)no2)cc1,"inconclusive: 23.1 µM [inhibitor, single point]",
O=C(O)c1ccc(COc2ccccc2/C=C2\NC(=O)N(Cc3ccccc3F)C2=O)cc1,"inconclusive: 18.3 µM [inhibitor, single point]",
Cn1nccc1C(=O)N1CCc2ccccc21,"inconclusive: 29.1 µM [activator, partial curve, poor fit]",

SMILES,Potency,"activity change, negative = inhibition"
COc1cc(NC(=S)NCc2ccc(S(N)(=O)=O)cc2)c(OC)cc1Cl,,inactive: -7.39%
CCOC(=O)CNc1nc(Cl)nc(Nc2ccc(Cl)cc2)n1,,inactive: 10.1%
Cc1nn(-c2ccc3ccccc3c2)c(=O)c2ccccc12,"inconclusive: 11.6 µM [activator, partial curve]",
COCCNc1nc(N)c([N+](=O)[O-])c(Nc2ccc(F)cc2)n1,,inactive: 15.3%
O=[N+]([O-])c1ccccc1/C=C/c1ccc2ccccc2n1,"inconclusive: 4.11 µM [activator, partial curve]",
CN(C(=O)/C=C/c1ccc([N+](=O)[O-])s1)c1ccccc1,"inconclusive: 29.1 µM [inhibitor, single point]",
CC(C)NCCCCOc1ccccc1-c1ccccc1,,inactive: -4.17%
CCOc1ccc(C(=O)NCC(=O)Nc2ccc(N3CCOCC3)cc2)cc1OCC,,inconclusive: 23.4% [activator]
O=C(CCCCC(=O)Nc1ccccc1Cl)Nc1ccccc1Cl,,inactive: 6.49%
CC(=O)NN1C(=O)c2ccccc2NC1c1ccc([N+](=O)[O-])o1 (stereo not drawn),,inactive: -15.6%
O=C(Nc1ccncc1)C1CCCN(S(=O)(=O)c2cccc3cccnc23)C1 (stereo not drawn),"inconclusive: 2.06 µM [inhibitor, partial curve, poor fit]",
CC(C)c1nnc(NC(=O)C2CC(=O)N(CCc3ccc(F)cc3)C2)s1 (stereo not drawn),"inconclusive: 18.3 µM [activator, partial curve, poor fit]",
O=C(CN1CCN(Cc2ccccc2)CC1)N/N=C/C=C/c1ccco1,"inconclusive: 32.6 µM [activator, single point]",
NC(=O)COc1ccc2oc(-c3ccccc3)cc(=O)c2c1,"inconclusive: 18.3 µM [activator, partial curve]",
CCOC(=O)/C(=C/c1ccc(OC)cc1)NC(=O)c1ccco1,"inconclusive: 16.4 µM [activator, partial curve]",
O=C(Cn1nnc(-c2ccccc2)n1)Nc1cccc(S(=O)(=O)N2CCCC2)c1,,inactive: -9.13%
CCN1CCN(c2nc3c(C)cccn3c(=O)c2/C=C(\C#N)C(=O)NCCOC)CC1,,inactive: -0.567%
COc1cccc(C(=O)O/N=C(\N)Cc2ccc(Cl)cc2)c1,,inactive: 0.606%
O=C(OCC(=O)N1N=C(c2ccc(Cl)cc2)CC1c1ccco1)c1cncc(Br)c1 (stereo not drawn),,inactive: 8.73%
COc1ccc(C)cc1NS(=O)(=O)c1ccc2c(c1)N(C)CCO2,"inconclusive: 14.6 µM [inhibitor, partial curve, poor fit]",
CC1CCC(NC(=O)CCC(=O)N2CC(C)Oc3ccccc32)CC1 (stereo not drawn),"inconclusive: 18.3 µM [activator, partial curve]",
CN(C)NC1=CC(=[N+]2CCCC2)CC(C)(C)C1,,inactive: 3.45%

# Structural class, the entries above with an NH in an aromatic ring.
SMILES,Potency,"activity change, negative = inhibition"
CN(C)C(=O)c1cc(C(=O)c2ccc(Cl)cc2Cl)c[nH]1,"inconclusive: 11.6 µM [activator, partial curve, poor fit]",
O=c1[nH]c(SCc2ccccc2)nc2[nH]ncc12,"inconclusive: 23.1 µM [activator, single point]",
CC1=CCC2C(=O)N(CCc3c[nH]c4ccccc34)C(=O)C2C1 (stereo not drawn),"inconclusive: 18.4 µM [activator, single point]",
